In the supplement of paper PMC6078165:
Values are relative to the signal before dosing, not to a vehicle control; the signal also falls without drug.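 Labels refer to human fibroblasts, largely primary: uterine (C12385, HUF), lung (H6013), bone (Hs27A), adrenal (HADF), skin (WS1), plus mammary HMF and breast cancer-associated Hs343T. Cancer lines are basal-like or mesenchymal-like triple-negative breast cancer. The paper counts as hits responses shifting over 3x the replicate standard deviation. The tissue of the other fibroblasts is not given here.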

System: HCC1143
Assay: relative JC-1 red fluorescence (viability) vs pre-drug, coculture with fibroblast (fraction); higher = more viable cancer cells
Experimental: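 JC-1 labelled TNBC cells cocultured 1:1 (1,500 cells each) with CellTrace Violet stained primary or stromal fibroblasts in 384-well plates in FluoroBrite medium, treated with one of 42 anticancer drugs at 0.1, 1, 10 or 100 uM. JC-1 red fluorescence (mitochondrial integrity in cancer cells only) was read by plate reader every 8 h for 72 h. Values are normalised to each well's pre-drug value. The stock of one drug was tenfold lower, so its dose labels may be too high.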

CC[C@]1(O)C[C@H]2CN(CCc3c([nH]c4ccccc34)[C@@](C(=O)OC)(c3cc4c(cc3OC)N(C=O)[C@H]3[C@@](O)(C(=O)OC)[C@H](OC(C)=O)[C@]5(CC)C=CCN6CC[C@]43[C@@H]65)C2)C1 [Vincristine]
relative JC-1 red fluorescence
Settings | 8 h | 16 h | 24 h | 32 h | 40 h | 48 h | 56 h | 64 h | 72 h
10 µM, coculture fibroblast: C12385 | 0.8486 | 0.8129 | 0.7843 | 0.7466 | 0.709 | 0.671 | 0.651 | 0.612 | 0.6029
10 µM, coculture fibroblast: H6013 | 0.793 | 0.749 | 0.729 | 0.747 | 0.676 | 0.673 | 0.66 | 0.658 | 0.688
10 µM, coculture fibroblast: H6019 | 0.86356 | 0.8284 | 0.817 | 0.79 | 0.7772 | 0.781 | 0.758 | 0.747 | 0.739
10 µM, coculture fibroblast: H6076 | 0.811 | 0.858 | 0.817 | 0.751 | 0.742 | 0.74 | 0.715 | 0.696 | 0.717
10 µM, coculture fibroblast: H6231 | 0.8487 | 0.784 | 0.735 | 0.701 | 0.649 | 0.632 | 0.595 | 0.563 | 0.5516
10 µM, coculture fibroblast: HADF | 0.737 | 0.694 | 0.669 | 0.682 | 0.588 | 0.563 | 0.537 | 0.523 | 0.558
10 µM, coculture fibroblast: HCFa | 0.8084 | 0.736 | 0.691 | 0.685 | 0.595 | 0.582 | 0.558 | 0.531 | 0.536
10 µM, coculture fibroblast: HCPF | 0.8232 | 0.867 | 0.819 | 0.7 | 0.767 | 0.737 | 0.707 | 0.676 | 0.663
10 µM, coculture fibroblast: HHSteC | 0.8414 | 0.795 | 0.761 | 0.751 | 0.6715 | 0.6542 | 0.61 | 0.5919 | 0.579
10 µM, coculture fibroblast: HMF | 0.7921 | 0.874 | 0.803 | 0.685 | 0.737 | 0.707 | 0.67 | 0.644 | 0.6269
10 µM, coculture fibroblast: HPFa | 0.938 | 0.878 | 0.855 | 0.758 | 0.716 | 0.693 | 0.6488 | 0.6131 | 0.595
10 µM, coculture fibroblast: HUF | 0.881 | 0.805 | 0.753 | 0.685 | 0.643 | 0.617 | 0.58 | 0.55 | 0.526
10 µM, coculture fibroblast: Hs5 | 0.8622 | 0.91 | 0.87 | 0.826 | 0.779 | 0.751 | 0.7279 | 0.703 | 0.71
10 µM, coculture fibroblast: Hs27A | 0.749 | 0.681 | 0.654 | 0.702 | 0.585 | 0.566 | 0.539 | 0.527 | 0.588
10 µM, coculture fibroblast: Hs343T | 0.822 | 0.8998 | 0.846 | 0.734 | 0.744 | 0.706 | 0.672 | 0.644 | 0.624
10 µM, coculture fibroblast: WS1 | 0.868 | 0.82 | 0.793 | 0.746 | 0.713 | 0.695 | 0.661 | 0.642 | 0.621
100 µM, coculture fibroblast: C12385 | 0.876 | 0.833 | 0.797 | 0.7573 | 0.73492 | 0.708 | 0.686 | 0.655 | 0.625
100 µM, coculture fibroblast: H6013 | 0.795 | 0.736 | 0.732 | 0.745 | 0.654 | 0.636 | 0.601 | 0.579 | 0.615
100 µM, coculture fibroblast: H6019 | 0.915 | 0.879 | 0.849 | 0.8 | 0.777 | 0.755 | 0.705 | 0.6766 | 0.651
100 µM, coculture fibroblast: H6076 | 0.815 | 0.881 | 0.8655 | 0.784 | 0.784 | 0.766 | 0.7369 | 0.7157 | 0.708
100 µM, coculture fibroblast: H6231 | 0.869 | 0.775 | 0.828 | 0.765 | 0.856 | 0.827 | 0.786 | 0.749 | 0.736
100 µM, coculture fibroblast: HADF | 0.784 | 0.744 | 0.718 | 0.737 | 0.647 | 0.625 | 0.594 | 0.578 | 0.599
100 µM, coculture fibroblast: HCFa | 0.811 | 0.757 | 0.742 | 0.763 | 0.68 | 0.666 | 0.641 | 0.621 | 0.67
100 µM, coculture fibroblast: HCPF | 0.8117 | 0.885 | 0.859 | 0.687 | 0.823 | 0.799 | 0.774 | 0.743 | 0.71
100 µM, coculture fibroblast: HHSteC | 0.8488 | 0.794 | 0.789 | 0.784 | 0.728 | 0.718 | 0.682 | 0.657 | 0.646
100 µM, coculture fibroblast: HMF | 0.813 | 0.881 | 0.859 | 0.731 | 0.802 | 0.777 | 0.745 | 0.72 | 0.685
100 µM, coculture fibroblast: HPFa | 0.94141 | 0.8939 | 0.8852 | 0.822 | 0.789 | 0.793 | 0.772 | 0.757 | 0.733
100 µM, coculture fibroblast: HUF | 0.9172 | 0.865 | 0.845 | 0.798 | 0.784 | 0.761 | 0.714 | 0.687 | 0.656
100 µM, coculture fibroblast: Hs5 | 0.8408 | 0.958 | 0.919 | 0.8359 | 0.8388 | 0.817 | 0.792 | 0.752 | 0.74
100 µM, coculture fibroblast: Hs27A | 0.77 | 0.715 | 0.682 | 0.747 | 0.602 | 0.5728 | 0.5524 | 0.5419 | 0.6455
100 µM, coculture fibroblast: Hs343T | 0.822 | 0.915 | 0.878 | 0.767 | 0.809 | 0.792 | 0.752 | 0.728 | 0.703
100 µM, coculture fibroblast: WS1 | 0.878 | 0.847 | 0.841 | 0.814 | 0.778 | 0.76 | 0.724 | 0.689 | 0.659
